PubChem BioAssay AID504793 – Drosophila RNAi Screening Center, 2011
In all, the deposit lists about 23,000 reagents; shown is an unselected part of those that have a named target and a result. Of all reagents, 62 (0.27%) were called active. 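Calls come from follow-up tests whose scores are not deposited, so confirmed genes may have low counts here; counts are not normalised per plate.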 The raw values are shown without normalisation. The numbers tell different reagents against one gene apart.

Assay: 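Knock-downs allowing continued mitosis even though DNA is damaged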 (primary screen)
Cell system: Drosophila S2R+ cells
Reagents: long dsRNA against Drosophila genes, about 0.25 µg dsRNA per well
Duration: 4 days of dsRNA, then 4 hours of drug before read-out
Treatment: doxorubicin 0.5 µM for 4 hours to cause double-strand breaks, in cells also given a low, harmless dose of dsRNA against nbs to sensitise the assay
Measurement: 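Mitotic index as the number of phospho-histone H3-positive cells in each well following doxorubicin, given as raw counts without normalisation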
Scale: mitotic cells: higher = more cells in mitosis, weaker G2 arrest
Hit rule: 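a call needs confirmation in secondary tests, with other dsRNAs and a check of mitotic timing without damage, not just a high primary count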
Meaning of the calls: active = confirmed in follow-up tests; inactive = not confirmed

CG9899 | mitotic cells, replicate 1 = 8; Call = inactive
Nup62 | mitotic cells, replicate 1 = 11; Call = inactive
Ctl2 #1 | mitotic cells, replicate 1 = 6; Call = inactive
Ctl2 #2 | mitotic cells, replicate 1 = 13; Call = inactive
CG2201 | mitotic cells, replicate 1 = 3; Call = inactive
CG10866 #1 | mitotic cells, replicate 1 = 9; Call = inactive
CG10866 #2 | mitotic cells, replicate 1 = 6; Call = inactive
CG13117 #1 | mitotic cells, replicate 1 = 1; Call = inactive
CG13117 #2 | mitotic cells, replicate 1 = 5; Call = inactive
CG1701 | mitotic cells, replicate 1 = 1; Call = inactive
rnh1 | mitotic cells, replicate 1 = 1; Call = inactive
CG1847 | mitotic cells, replicate 1 = 6; Call = inactive
CG31686 (retired record) #1 | mitotic cells, replicate 1 = 6; Call = inactive
CG31686 (retired record) #2 | mitotic cells, replicate 1 = 3; Call = inactive

Reformatted: results already given.
| gene knocked down | reagent | mitotic cells, replicate 1 | Call |
| --- | --- | --- | --- |
| CG13117 | 1 | 1 | inactive |
| CG13117 | 2 | 5 | inactive |
